Reference: publication PMC12464768
No constants are given. Whether binding was seen depends on the method and setting. In cells and extracts the contact can be indirect. Here binding means that the protein was enriched with, or labelled near, the bait; the list need not be complete.

The chains behind the UniProt entries cited, without tags or fusion partners.
UniProt P32121: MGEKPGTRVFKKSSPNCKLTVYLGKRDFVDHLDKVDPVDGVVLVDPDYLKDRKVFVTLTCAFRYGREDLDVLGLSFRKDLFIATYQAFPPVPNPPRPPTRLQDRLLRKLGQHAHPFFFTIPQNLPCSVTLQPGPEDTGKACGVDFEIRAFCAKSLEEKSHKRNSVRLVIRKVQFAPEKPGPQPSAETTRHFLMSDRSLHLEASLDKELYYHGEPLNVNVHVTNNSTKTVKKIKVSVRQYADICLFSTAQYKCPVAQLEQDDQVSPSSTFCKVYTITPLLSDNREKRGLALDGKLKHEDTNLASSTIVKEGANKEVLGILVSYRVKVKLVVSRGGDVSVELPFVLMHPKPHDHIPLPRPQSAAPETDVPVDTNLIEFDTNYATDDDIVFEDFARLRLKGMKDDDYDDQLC
UniProt Q9C0D3: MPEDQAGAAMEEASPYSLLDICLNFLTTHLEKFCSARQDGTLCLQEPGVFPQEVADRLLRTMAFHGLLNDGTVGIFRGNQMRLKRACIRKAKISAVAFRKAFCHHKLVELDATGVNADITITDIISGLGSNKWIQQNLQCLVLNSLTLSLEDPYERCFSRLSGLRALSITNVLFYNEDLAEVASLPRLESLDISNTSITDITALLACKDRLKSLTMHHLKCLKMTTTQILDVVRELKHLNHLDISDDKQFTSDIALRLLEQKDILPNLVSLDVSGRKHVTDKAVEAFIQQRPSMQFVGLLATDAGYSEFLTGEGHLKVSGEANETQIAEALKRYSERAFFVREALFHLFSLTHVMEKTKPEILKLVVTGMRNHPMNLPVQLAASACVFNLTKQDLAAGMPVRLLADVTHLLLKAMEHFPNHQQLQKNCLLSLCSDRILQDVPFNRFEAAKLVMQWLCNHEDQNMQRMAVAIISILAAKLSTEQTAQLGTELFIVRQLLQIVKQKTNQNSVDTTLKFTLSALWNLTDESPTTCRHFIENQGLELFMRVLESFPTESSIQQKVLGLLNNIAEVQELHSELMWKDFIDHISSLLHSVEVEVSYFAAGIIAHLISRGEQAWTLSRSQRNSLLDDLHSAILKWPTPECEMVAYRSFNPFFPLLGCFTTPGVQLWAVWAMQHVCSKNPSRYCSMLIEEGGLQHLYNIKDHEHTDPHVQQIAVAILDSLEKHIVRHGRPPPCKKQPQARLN
UniProt Q13283: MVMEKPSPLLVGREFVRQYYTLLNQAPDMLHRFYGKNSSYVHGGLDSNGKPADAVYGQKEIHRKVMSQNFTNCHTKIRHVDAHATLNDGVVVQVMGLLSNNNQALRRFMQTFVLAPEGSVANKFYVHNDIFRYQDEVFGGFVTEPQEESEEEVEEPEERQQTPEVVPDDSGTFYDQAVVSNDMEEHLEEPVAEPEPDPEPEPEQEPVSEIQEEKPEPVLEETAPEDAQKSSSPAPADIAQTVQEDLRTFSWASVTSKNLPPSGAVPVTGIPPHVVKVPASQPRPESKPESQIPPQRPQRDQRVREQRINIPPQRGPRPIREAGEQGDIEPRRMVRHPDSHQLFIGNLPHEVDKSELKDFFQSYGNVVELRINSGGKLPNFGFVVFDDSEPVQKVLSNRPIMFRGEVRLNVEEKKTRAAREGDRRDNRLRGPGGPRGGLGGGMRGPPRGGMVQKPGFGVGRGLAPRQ
UniProt Q9UKI8: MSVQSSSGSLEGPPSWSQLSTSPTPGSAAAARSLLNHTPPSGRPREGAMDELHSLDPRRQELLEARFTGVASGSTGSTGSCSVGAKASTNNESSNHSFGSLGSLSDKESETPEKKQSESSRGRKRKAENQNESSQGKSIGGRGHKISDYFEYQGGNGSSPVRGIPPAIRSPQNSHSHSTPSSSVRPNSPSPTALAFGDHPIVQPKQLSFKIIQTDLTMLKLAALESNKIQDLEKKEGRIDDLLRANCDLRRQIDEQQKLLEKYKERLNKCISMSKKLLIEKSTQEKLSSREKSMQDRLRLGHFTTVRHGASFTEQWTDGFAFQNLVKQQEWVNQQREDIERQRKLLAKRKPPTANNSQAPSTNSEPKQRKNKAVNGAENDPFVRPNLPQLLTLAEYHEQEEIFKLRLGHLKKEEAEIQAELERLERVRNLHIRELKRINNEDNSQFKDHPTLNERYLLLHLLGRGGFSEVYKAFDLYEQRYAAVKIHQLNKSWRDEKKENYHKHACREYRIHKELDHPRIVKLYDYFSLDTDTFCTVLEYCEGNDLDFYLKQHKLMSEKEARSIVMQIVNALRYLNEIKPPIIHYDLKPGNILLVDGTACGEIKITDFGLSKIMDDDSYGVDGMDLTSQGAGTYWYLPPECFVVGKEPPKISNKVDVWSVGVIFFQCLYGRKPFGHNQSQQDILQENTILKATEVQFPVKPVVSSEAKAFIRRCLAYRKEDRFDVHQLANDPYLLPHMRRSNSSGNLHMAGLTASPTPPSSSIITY
UniProt Q9Y520: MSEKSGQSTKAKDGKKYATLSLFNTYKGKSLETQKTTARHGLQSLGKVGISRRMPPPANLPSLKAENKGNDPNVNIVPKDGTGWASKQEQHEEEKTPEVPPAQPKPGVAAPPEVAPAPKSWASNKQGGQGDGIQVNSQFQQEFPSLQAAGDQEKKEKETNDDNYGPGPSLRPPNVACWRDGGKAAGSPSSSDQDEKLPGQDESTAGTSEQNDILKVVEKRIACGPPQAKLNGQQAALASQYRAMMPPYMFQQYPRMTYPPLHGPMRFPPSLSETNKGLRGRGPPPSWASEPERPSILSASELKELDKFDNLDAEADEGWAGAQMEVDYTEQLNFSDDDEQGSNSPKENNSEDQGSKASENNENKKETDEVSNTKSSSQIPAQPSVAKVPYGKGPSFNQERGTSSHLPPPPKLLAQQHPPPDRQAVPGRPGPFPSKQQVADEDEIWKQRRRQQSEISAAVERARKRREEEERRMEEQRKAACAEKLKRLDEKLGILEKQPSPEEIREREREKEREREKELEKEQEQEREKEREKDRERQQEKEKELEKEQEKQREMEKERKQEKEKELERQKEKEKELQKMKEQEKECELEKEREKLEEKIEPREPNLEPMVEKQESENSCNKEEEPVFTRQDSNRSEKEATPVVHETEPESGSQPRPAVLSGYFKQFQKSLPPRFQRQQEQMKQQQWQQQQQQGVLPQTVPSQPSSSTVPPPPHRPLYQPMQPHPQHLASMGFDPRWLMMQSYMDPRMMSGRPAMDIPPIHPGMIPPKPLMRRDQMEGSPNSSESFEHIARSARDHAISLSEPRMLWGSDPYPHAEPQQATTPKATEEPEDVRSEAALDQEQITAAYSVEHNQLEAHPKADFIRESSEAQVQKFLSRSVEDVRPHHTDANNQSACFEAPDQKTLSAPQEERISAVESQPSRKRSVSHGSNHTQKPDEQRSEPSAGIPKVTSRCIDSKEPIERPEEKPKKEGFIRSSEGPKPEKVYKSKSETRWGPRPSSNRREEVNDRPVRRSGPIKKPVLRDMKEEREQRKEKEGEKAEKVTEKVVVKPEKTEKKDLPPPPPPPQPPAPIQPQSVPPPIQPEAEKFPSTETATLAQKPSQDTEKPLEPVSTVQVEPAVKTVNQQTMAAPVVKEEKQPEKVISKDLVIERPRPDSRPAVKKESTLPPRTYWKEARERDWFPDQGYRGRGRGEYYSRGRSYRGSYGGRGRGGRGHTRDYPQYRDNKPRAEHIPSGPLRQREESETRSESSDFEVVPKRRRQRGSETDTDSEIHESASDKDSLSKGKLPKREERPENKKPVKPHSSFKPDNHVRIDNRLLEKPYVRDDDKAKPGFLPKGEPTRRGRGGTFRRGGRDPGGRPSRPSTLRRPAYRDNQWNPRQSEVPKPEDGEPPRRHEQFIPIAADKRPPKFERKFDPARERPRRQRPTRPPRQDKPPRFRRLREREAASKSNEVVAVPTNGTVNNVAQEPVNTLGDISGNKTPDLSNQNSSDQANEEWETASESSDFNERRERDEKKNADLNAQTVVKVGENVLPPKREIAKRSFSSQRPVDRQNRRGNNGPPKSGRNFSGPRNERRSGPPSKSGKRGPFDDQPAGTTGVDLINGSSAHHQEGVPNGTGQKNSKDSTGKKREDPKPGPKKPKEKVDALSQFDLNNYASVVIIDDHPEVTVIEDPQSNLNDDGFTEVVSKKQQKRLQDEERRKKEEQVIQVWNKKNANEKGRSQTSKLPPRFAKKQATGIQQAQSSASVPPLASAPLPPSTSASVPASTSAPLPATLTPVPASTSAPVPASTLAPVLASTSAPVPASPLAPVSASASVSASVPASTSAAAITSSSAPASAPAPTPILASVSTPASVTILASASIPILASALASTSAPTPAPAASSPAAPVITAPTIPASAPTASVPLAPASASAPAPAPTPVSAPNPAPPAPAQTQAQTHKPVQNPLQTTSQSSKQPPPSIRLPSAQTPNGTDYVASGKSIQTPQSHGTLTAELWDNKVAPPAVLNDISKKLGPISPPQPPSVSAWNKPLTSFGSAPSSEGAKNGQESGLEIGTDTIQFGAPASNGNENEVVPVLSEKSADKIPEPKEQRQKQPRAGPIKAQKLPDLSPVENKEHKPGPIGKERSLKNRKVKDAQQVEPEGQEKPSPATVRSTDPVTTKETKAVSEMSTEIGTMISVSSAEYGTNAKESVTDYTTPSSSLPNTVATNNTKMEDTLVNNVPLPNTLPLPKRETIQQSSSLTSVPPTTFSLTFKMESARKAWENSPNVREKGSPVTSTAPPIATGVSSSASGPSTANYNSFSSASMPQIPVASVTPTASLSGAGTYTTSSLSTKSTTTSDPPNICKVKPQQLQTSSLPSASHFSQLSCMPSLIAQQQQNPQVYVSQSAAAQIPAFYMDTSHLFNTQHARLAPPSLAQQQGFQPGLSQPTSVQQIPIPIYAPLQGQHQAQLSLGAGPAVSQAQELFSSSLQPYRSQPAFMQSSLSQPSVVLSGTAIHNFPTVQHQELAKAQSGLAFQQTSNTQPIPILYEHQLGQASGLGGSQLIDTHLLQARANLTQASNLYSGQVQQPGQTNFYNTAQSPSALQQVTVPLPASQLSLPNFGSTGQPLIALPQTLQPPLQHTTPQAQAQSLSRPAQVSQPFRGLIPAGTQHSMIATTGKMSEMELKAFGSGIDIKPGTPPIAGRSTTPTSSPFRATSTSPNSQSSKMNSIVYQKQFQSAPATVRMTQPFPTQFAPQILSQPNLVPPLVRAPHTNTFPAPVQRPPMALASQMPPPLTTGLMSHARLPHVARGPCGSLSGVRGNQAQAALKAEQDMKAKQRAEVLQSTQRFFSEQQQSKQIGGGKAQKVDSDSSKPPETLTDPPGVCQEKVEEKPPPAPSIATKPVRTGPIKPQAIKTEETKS
UniProt Q14157: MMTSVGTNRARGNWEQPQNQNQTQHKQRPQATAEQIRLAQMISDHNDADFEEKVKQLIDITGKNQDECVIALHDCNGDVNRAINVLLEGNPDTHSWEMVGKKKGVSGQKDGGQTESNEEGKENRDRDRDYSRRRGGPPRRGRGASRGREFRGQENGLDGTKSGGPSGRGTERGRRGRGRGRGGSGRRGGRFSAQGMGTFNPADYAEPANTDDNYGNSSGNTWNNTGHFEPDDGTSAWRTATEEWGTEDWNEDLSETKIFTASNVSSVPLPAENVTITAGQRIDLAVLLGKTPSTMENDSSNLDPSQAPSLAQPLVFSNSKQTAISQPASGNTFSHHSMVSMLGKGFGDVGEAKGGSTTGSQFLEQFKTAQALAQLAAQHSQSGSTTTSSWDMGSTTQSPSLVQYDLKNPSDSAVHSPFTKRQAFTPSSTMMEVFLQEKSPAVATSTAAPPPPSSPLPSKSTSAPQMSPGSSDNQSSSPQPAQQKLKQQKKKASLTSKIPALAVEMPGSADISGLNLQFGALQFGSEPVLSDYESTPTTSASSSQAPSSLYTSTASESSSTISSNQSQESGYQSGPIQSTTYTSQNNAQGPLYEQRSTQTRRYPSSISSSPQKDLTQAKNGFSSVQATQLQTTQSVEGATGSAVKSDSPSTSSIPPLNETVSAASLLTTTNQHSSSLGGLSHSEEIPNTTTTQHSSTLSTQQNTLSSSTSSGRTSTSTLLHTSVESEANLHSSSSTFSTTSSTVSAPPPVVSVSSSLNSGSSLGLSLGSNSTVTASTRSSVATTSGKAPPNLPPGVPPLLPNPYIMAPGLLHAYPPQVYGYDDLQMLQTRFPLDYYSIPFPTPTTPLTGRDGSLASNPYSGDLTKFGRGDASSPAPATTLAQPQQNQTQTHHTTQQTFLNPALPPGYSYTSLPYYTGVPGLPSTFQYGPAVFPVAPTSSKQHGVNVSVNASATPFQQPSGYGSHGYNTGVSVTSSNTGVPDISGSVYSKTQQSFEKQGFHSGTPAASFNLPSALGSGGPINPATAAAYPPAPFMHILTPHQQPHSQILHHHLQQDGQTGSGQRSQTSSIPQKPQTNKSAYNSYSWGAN

B1: CTD phosphatase subunit 1 (enzyme, UniProt Q9Y5B0 1-961)
chain: MEVPAAGRVPAEGAPTAAVAEVRCPGPAPLRLLEWRVAAGAAVRIGSVLAVFEAAASAQSSGASQSRVASGGCVRPARPERRLRSERAGVVRELCAQPGQVVAPGAVLVRLEGCSHPVVMKGLCAECGQDLTQLQSKNGKQQVPLSTATVSMVHSVPELMVSSEQAEQLGREDQQRLHRNRKLVLMVDLDQTLIHTTEQHCQQMSNKGIFHFQLGRGEPMLHTRLRPHCKDFLEKIAKLYELHVFTFGSRLYAHTIAGFLDPEKKLFSHRILSRDECIDPFSKTGNLRNLFPCGDSMVCIIDDREDVWKFAPNLITVKKYVYFQGTGDMNAPPGSRESQTRKKVNHSRGTEVSEPSPPVRDPEGVTQAPGVEPSNGLEKPARELNGSEAATPRDSPRPGKPDERDIWPPAQAPTSSQELAGAPEPQGSCAQGGRVAPGQRPAQGATGTDLDFDLSSDSESSSESEGTKSSSSASDGESEGKRGRQKPKAAPEGAGALAQGSSLEPGRPAAPSLPGEAEPGAHAPDKEPELGGQEEGERDGLCGLGNGCADRKEAETESQNSELSGVTAGESLDQSMEEEEEEDTDEDDHLIYLEEILVRVHTDYYAKYDRYLNKEIEEAPDIRKIVPELKSKVLADVAIIFSGLHPTNFPIEKTREHYHATALGAKILTRLVLSPDAPDRATHLIAARAGTEKVLQAQECGHLHVVNPDWLWSCLERWDKVEEQLFPLRDDHTKAQRENSPAAFPDREGVPPTALFHPMPVLPKAQPGPEVRIYDSNTGKLIRTGARGPPAPSSSLPIRQEPSSFRAVPPPQPQMFGEELPDAQDGEQPGPSRRKRQPSMSETMPLYTLCKEDLESMDKEVDDILGEGSDDSDSEKRRPEEQEEEPQPRKPGTRRERTLGAPASSERSAAGGRGPRGHKRKLNEEDAASESSRESSNEDEGSSSEADEMAKALEAELNDLM
B2: Septin7 (endogenous) (protein, UniProt Q16181 1-437)
chain: MSVSARSAAAEERSVNSSTMVAQQKNLEGYVGFANLPNQVYRKSVKRGFEFTLMVVGESGLGKSTLINSLFLTDLYSPEYPGPSHRIKKTVQVEQSKVLIKEGGVQLLLTIVDTPGFGDAVDNSNCWQPVIDYIDSKFEDYLNAESRVNRRQMPDNRVQCCLYFIAPSGHGLKPLDIEFMKRLHEKVNIIPLIAKADTLTPEECQQFKKQIMKEIQEHKIKIYEFPETDDEEENKLVKKIKDRLPLAVVGSNTIIEVNGKRVRGRQYPWGVAEVENGEHCDFTILRNMLIRTHMQDLKDVTNNVHYENYRSRKLAAVTYNGVDNNKNKGQLTKSPLAQMEEERREHVAKMKKMEMEMEQVFEMKVKEKVQKLKDSEAELQRRHEQMKKNLEAQHKELEEKRRQFEDEKANWEAQQRILEQQNSSRTLEKNKKKGKIF
B3: cyclin G-associated kinase (enzyme, UniProt O14976 1-1311)
chain: MSLLQSALDFLAGPGSLGGASGRDQSDFVGQTVELGELRLRVRRVLAEGGFAFVYEAQDVGSGREYALKRLLSNEEEKNRAIIQEVCFMKKLSGHPNIVQFCSAASIGKEESDTGQAEFLLLTELCKGQLVEFLKKMESRGPLSCDTVLKIFYQTCRAVQHMHRQKPPIIHRDLKVENLLLSNQGTIKLCDFGSATTISHYPDYSWSAQRRALVEEEITRNTTPMYRTPEIIDLYSNFPIGEKQDIWALGCILYLLCFRQHPFEDGAKLRIVNGKYSIPPHDTQYTVFHSLIRAMLQVNPEERLSIAEVVHQLQEIAAARNVNPKSPITELLEQNGGYGSATLSRGPPPPVGPAGSGYSGGLALAEYDQPYGGFLDILRGGTERLFTNLKDTSSKVIQSVANYAKGDLDISYITSRIAVMSFPAEGVESALKNNIEDVRLFLDSKHPGHYAVYNLSPRTYRPSRFHNRVSECGWAARRAPHLHTLYNICRNMHAWLRQDHKNVCVVHCMDGRAASAVAVCSFLCFCRLFSTAEAAVYMFSMKRCPPGIWPSHKRYIEYMCDMVAEEPITPHSKPILVRAVVMTPVPLFSKQRSGCRPFCEVYVGDERVASTSQEYDKMRDFKIEDGKAVIPLGVTVQGDVLIVIYHARSTLGGRLQAKMASMKMFQIQFHTGFVPRNATTVKFAKYDLDACDIQEKYPDLFQVNLEVEVEPRDRPSREAPPWENSSMRGLNPKILFSSREEQQDILSKFGKPELPRQPGSTAQYDAGAGSPEAEPTDSDSPPSSSADASRFLHTLDWQEEKEAETGAENASSKESESALMEDRDESEVSDEGGSPISSEGQEPRADPEPPGLAAGLVQQDLVFEVETPAVLPEPVPQEDGVDLLGLHSEVGAGPAVPPQACKAPSSNTDLLSCLLGPPEAASQGPPEDLLSEDPLLLASPAPPLSVQSTPRGGPPAAADPFGPLLPSSGNNSQPCSNPDLFGEFLNSDSVTVPPSFPSAHSAPPPSCSADFLHLGDLPGEPSKMTASSSNPDLLGGWAAWTETAASAVAPTPATEGPLFSPGGQPAPCGSQASWTKSQNPDPFADLGDLSSGLQGSPAGFPPGGFIPKTATTPKGSSSWQTSRPPAQGASWPPQAKPPPKACTQPRPNYASNFSVIGAREERGVRAPSFAQKPKVSENDFEDLLSNQGFSSRSDKKGPKTIAEMRKQDLAKDTDPLKLKLLDWIEGKERNIRALLSTLHTVLWDGESRWTPVGMADLVAPEQVKKHYRRAVLAVHPDKAAGQPYEQHAKMIFMELNDAWSEFENQGSRPLF
B4: UBAP2 (protein, UniProt Q5T6F2 1-1119)
chain: MMTSVSSDHCRGAREKPQISAAQSTQPQKQVVQATAEQMRLAQVIFDKNDSDFEAKVKQLMEVTGKNQDECIVALHDCNGDVNKAINILLEGNSDTTSWETVGCKKKNFAKENSENKENREKKSEKESSRGRGNNNRKGRGGNRGREFRGEENGIDCNQVDKPSDRGKRARGRGFGRGRGRGAGRFSTQGMGTFNPADYSDSTSTDVCGTKLVVWEAAQNGADEGTELASNTHNIAQDLSNKSSYGLKGAWKNSVEEWTTEDWTEDLSETKVFTASSAPAENHILPGQSIDLVALLQKPVPHSQASEANSFETSQQQGFGQALVFTNSQHNNQMAPGTGSSTAVNSCSPQSLSSVLGSGFGELAPPKMANITSSQILDQLKAPSLGQFTTTPSTQQNSTSHPTTTTSWDLKPPTSQSSVLSHLDFKSQPEPSPVLSQLSQRQQHQSQAVTVPPPGLESFPSQAKLRESTPGDSPSTVNKLLQLPSTTIENISVSVHQPQPKHIKLAKRRIPPASKIPASAVEMPGSADVTGLNVQFGALEFGSEPSLSEFGSAPSSENSNQIPISLYSKSLSEPLNTSLSMTSAVQNSTYTTSVITSCSLTSSSLNSASPVAMSSSYDQSSVHNRIPYQSPVSSSESAPGTIMNGHGGGRSQQTLDTPKTTGPPSALPSVSSLPSTTSCTALLPSTSQHTGDLTSSPLSQLSSSLSSHQSSLSAHAALSSSTSHTHASVESASSHQSSATFSTAATSVSSSASSGASLSSSMNTANSLCLGGTPASASSSSSRAAPLVTSGKAPPNLPQGVPPLLHNQYLVGPGGLLPAYPIYGYDELQMLQSRLPVDYYGIPFAAPTALASRDGSLANNPYPGDVTKFGRGDSASPAPATTPAQPQQSQSQTHHTAQQPFVNPALPPGYSYTGLPYYTGMPSAFQYGPTMFVPPASAKQHGVNLSTPTPPFQQASGYGQHGYSTGYDDLTQGTAAGDYSKGGYAGSSQAPNKSAGSGPGKGVSVSSSTTGLPDMTGSVYNKTQTFDKQGFHAGTPPPFSLPSVLGSTGPLASGAAPGYAPPPFLHILPAHQQPHSQLLHHHLPQDAQSGSGQRSQPSSLQPKSQASKPAYGNSPYWTN

biological target: human μ-opioid receptor fused with the BRET-ID sequence (human) (UniProt P35372); assay: proximity labelling; BRET-ID: HEK293T expressing hMOR-BRET-ID, 1 min furimazine labelling after DAMGO stimulation for 0, 5 and 30 min; streptavidin enrichment, DIA LC-MS/MS

| binding | Molecule |
| --- | --- |
| binds | B1 |
| binds | B2 |
| binds | B3 |

biological target: human μ-opioid receptor fused with the BRET-ID sequence (human) (UniProt P35372); assay: as above; remark: another data set of the same source

| binding | Molecule |
| --- | --- |
| binds | GRK2 (from UniProt P25098 1-689) (enzyme) |
| binds | β-arrestin-2 (endogenous) (from UniProt P32121 1-409) |
| binds | protein kinase C alpha (from UniProt P17252 1-672) (enzyme) |
| binds | ZYG11B (endogenous) (from UniProt Q9C0D3 1-744) |

biological target: G3BP1 (Ras GTPase-activating protein-binding protein 1) fused to the BRET-ID tag (UniProt Q13283); assay: proximity labelling; BRET-ID in vivo: tumor xenografts expressing G3BP1-BRET-ID in nude mice, intratumoral injection of furimazine and alkyne-aniline; FISAP streptavidin enrichment, DIA LC-MS/MS

| binding | Molecule |
| --- | --- |
| binds | MED13 (Mediator of RNA polymerase II transcription subunit 13) (from UniProt Q9UHV7 1-2174) |

biological target: G3BP1 (Ras GTPase-activating protein-binding protein 1) fused to the BRET-ID tag (UniProt Q13283); assay: proximity labelling; BRET-ID: HEK293T stably expressing G3BP1-BRET-ID, basal or 0.5 mM sodium arsenite for 60 min, 75 μM furimazine for 5 min; enrichment against a control without furimazine, DIA LC-MS/MS

| binding | Molecule |
| --- | --- |
| binds | TLK1 (serine/threonine-protein kinase tousled-like 1) (from UniProt Q9UKI8 1-766) (enzyme) |
| binds | PRRC2C (from UniProt Q9Y520 1-2896) |
| binds | UBAP2L (from UniProt Q14157 1-1087) |
| binds | B4 |
